Library screen at single concentrations

Sequences of proteins named here, by UniProt entry; tags and fusion partners are left off. Residues count along the entry.
UniProt Q4DA54, 1-478: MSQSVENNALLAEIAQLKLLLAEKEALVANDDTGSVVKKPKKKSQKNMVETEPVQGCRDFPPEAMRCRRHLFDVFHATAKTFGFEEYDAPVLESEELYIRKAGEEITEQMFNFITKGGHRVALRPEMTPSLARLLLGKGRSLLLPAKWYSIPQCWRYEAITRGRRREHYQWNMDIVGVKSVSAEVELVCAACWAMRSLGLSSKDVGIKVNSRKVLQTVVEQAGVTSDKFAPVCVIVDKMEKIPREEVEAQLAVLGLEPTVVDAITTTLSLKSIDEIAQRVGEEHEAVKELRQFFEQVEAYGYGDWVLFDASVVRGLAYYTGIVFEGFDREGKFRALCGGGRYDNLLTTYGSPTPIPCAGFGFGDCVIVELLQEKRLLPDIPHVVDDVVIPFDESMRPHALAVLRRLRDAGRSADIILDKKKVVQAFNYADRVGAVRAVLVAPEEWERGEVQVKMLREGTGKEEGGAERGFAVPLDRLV
UniProt P9WFT3, whole entry: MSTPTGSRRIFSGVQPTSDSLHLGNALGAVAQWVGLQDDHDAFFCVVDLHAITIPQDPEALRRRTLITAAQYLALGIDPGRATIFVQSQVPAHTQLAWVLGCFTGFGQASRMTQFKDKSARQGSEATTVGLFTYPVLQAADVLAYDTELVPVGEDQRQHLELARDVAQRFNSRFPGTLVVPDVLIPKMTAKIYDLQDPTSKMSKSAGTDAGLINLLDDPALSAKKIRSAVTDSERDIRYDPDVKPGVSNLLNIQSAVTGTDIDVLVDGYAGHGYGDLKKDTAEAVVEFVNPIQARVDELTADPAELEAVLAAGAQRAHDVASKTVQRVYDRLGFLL
UniProt I6X8D2, whole entry: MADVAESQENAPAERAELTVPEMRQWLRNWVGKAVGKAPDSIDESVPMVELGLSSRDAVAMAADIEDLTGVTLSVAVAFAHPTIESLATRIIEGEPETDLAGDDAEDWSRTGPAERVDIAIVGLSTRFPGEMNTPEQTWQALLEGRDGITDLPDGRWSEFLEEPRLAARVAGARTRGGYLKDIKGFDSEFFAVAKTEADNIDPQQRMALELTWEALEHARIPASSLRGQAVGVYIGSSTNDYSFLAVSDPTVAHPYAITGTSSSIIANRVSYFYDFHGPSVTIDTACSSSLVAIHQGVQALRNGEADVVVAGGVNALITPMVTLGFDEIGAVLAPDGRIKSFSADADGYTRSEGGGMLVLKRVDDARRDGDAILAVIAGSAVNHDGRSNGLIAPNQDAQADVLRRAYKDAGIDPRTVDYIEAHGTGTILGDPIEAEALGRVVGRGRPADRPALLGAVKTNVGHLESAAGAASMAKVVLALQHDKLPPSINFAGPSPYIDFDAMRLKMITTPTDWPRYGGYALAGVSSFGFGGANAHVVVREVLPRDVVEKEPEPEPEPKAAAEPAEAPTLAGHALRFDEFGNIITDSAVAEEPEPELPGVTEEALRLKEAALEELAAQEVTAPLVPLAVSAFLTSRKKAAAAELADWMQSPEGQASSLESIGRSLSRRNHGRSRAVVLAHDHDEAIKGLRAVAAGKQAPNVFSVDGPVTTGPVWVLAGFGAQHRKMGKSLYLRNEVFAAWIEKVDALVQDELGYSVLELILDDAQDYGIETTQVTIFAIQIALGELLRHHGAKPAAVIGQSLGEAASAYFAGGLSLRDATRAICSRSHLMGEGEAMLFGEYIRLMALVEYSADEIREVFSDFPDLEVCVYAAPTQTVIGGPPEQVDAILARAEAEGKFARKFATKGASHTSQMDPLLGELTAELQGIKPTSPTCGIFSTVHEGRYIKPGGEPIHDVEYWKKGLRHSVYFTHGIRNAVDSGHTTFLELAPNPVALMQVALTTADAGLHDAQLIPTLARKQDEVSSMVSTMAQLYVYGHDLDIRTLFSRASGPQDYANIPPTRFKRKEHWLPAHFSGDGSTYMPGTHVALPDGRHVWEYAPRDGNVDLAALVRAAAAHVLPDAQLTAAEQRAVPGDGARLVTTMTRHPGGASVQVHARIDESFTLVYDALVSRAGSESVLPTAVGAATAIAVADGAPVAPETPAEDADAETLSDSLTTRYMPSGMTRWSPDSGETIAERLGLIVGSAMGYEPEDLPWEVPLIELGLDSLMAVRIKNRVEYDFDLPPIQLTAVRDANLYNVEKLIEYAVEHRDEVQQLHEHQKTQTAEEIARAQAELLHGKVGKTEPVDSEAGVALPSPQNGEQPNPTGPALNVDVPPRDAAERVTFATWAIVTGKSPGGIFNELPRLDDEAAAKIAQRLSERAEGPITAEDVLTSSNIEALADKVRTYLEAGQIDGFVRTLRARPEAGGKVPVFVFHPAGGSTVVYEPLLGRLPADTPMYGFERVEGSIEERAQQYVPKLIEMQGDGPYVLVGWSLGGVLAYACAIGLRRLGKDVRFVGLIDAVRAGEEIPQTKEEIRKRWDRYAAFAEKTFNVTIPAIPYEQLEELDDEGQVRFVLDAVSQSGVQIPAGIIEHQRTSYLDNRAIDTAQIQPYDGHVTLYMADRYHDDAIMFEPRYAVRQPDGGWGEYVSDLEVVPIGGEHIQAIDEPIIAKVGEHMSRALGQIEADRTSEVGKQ
UniProt Q8IDJ8, 1-583: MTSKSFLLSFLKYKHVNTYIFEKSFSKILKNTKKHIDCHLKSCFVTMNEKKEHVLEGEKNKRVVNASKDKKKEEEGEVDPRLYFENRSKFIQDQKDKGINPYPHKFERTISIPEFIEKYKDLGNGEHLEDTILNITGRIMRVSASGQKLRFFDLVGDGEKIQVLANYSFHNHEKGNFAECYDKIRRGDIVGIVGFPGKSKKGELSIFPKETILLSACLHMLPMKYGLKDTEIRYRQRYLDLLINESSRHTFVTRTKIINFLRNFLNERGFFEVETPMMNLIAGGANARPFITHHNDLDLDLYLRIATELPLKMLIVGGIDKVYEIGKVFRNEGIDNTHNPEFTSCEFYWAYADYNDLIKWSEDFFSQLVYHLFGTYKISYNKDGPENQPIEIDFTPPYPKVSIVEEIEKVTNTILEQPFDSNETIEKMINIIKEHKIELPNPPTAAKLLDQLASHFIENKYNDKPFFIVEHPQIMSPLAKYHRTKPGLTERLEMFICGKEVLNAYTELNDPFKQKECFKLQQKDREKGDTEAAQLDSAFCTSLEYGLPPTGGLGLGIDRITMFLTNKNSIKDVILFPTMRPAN

A: 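Enzyme assay of histidyl-tRNA synthetase; the read-out is not stated. Target: Histidine-tRNA ligase, Trypanosoma cruzi CL Brener (UniProt Q4DA54). Concentration: 30 µM. Higher reads as stronger inhibition (inferred: compounds with an IC50 in retests scored well above the rest). Of about 69,000 compounds tested this way, about 31 (0.045%) reached 50% or more in at least one test.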
B: 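Tryptophan-tRNA ligase, Mycobacterium tuberculosis (UniProt P9WFT3). Enzyme assay of tryptophanyl-tRNA synthetase; the read-out is not stated. Tested at 10 µM. Higher most likely means stronger inhibition; the record gives no direction and few retests gave an IC50. Of about 65,000 compounds tested this way, about 64 (0.098%) reached 50% or more in at least one test.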
C: 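Polyketide synthase Pks13, Mycobacterium tuberculosis (UniProt I6X8D2). Enzyme assay of the thioesterase domain of polyketide synthase 13; the read-out is not stated. Tested at 30 µM. Higher reads as stronger inhibition (inferred from which compounds were picked for retests). Size under these conditions: about 67,000 compounds, about 300 of them at 50% or above in at least one test.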
D: 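Enzyme assay of the cytosolic lysyl-tRNA synthetase in 384-well plates, read by luminescence. Target: Lysine-tRNA ligase, Plasmodium falciparum 3D7 (UniProt Q8IDJ8). Compounds at 30 µM. Higher reads as stronger inhibition, judged from the few compounds that gave an IC50. About 69,000 compounds were tested under these conditions; 0.071% (about 49) showed 50% or more at least once.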
E: 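Assay of Toxoplasma gondii numbers, read through their beta-galactosidase reporter with a colour substrate. Tested at 10 µM. Higher reads as fewer parasites (inferred from which compounds were picked for retests). About 67,000 compounds were tested under these conditions; 0.38% (about 260) showed 50% or more at least once.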

Each number is a percent effect as filed.
The controls that fix the scale are not given in the record; negative values are as filed.
Compounds were drawn at random from those tested, without regard to their results.
A dash means the value is not listed here; it may have been measured.

SMILES	A	B	C	D	E
COc1ccc(CN(Cc2cccnc2)CC2CCCO2)c(OC)c1 (configuration not stated)	6.011	-3.7	-30.8	-2.228	-
O=C(Cc1cccc(F)c1)NC1CCCc2cn[nH]c21 (configuration not stated)	4.878	2.658	2.779	6.606	-11.83
CCN(Cc1ccncc1)C(=O)C(C)n1ccnc1C(C)C (configuration not stated)	0.4975	-5.325	-22.25	4.704	-14.49
CCCc1nc(CNc2nc(C)nc3oc(C)nc23)cs1	4.598	-1.163	-27.44	5.714	-0.05671
CN1CCN(CCNC(=O)c2sccc2C2CC2)CC1	3.704	0.8043	-9.23	5.774	2.688
C[C@H](O)CNc1cc(-c2ccccc2)ncn1	1.13	-	-1.261	3.242	0.4233
O=C(O)C(F)(F)F.[H][C@@]12CN(Cc3nccn3C)C[C@@]1([H])N(CC1CCCC1)C(=O)CO2	-	-	-	-	-3.356
Cn1ccnc1CN1CCC2(CC1)CN(Cc1cccnc1)C(=O)CO2	3.226	1.036	-1.249	5.401	-
CCC(CC)C(=O)N1CCN(C)c2ncccc2C1	4.95	1.205	-52.11	2.846	2.712
Cc1n[nH]c(C)c1CNC(=O)CSCc1ccccc1Cl	2.762	-7.216	3.167	4.077	-8.171
CN(C)C1(C(=O)NC2CCC(Oc3ccccc3C#N)CC2)CCC1 (configuration not stated)	1.02	-1.175	-44.39	-0.5569	11.61
Cc1cc(C2CCN(S(=O)(=O)N(C)C)CC2)ccn1	3.101	16.21	-19.66	-0.186	3.099
CC(O)CN1CCN(Cc2coc(-c3ccccc3)n2)CC1 (configuration not stated)	7.407	-4.688	21.61	1.224	0.7057
Cc1ccccc1CS(=O)(=O)CC(=O)NC1CCCCNC1=O (configuration not stated)	0	3.277	-1.496	-0.1739	4.976
CC(C)n1cnnc1CN(C)Cc1ccc(CO)o1	7.229	-1.867	1.17	4.024	-9.091
CCC(CO)N(Cc1cccnc1)C(=O)c1ccncc1F (configuration not stated)	2.439	-2.039	-5.882	-4.625	-35.9
Cc1cccc(C(=O)N2C[C@H](NS(C)(=O)=O)[C@@H]3OCCC[C@@H]32)n1	12.61	-3.591	-10.62	7.775	-
N[C@H]1CN(C(=O)c2ccccc2OCCc2ccccc2)C[C@@H]1C1CC1	8.696	-6.223	-9.495	5.508	-6.949
CN(Cc1ccc2nsnc2c1)C(=O)CCc1cc2n(n1)CCCNC2	-6.667	0.3303	-13.26	4.51	0.08654
Cc1cc(CN2CCN(C(C)C)C(CCO)C2)[nH]n1 (configuration not stated)	0	-0.722	13.94	3.86	1.248
CNc1cc(C2CCCN(S(=O)(=O)c3cn[nH]c3)C2)ccn1 (configuration not stated)	6.844	-6.275	5.583	0.5014	16.37
CC(C)c1nc(CSc2nnc(C3CC3)n2CC(N)=O)no1	5.82	-1.877	-18.04	8.15	-14.4
CC(C)COC(C)C(=O)N1CCCC1 (configuration not stated)	3.093	-1.009	-33.8	-2.935	7.649
CCc1nc(CN2CCCN(c3cnc4ccccc4n3)CC2)no1	7.738	-2.004	-17.53	5.307	4.806
O=C(O)[C@@H]1CN(C(=O)CCC(F)(F)F)C[C@H]1c1ccncc1	2.4	0.2513	7.823	1.778	-1.093
CCN(CC(=O)NC(C)C)S(=O)(=O)N1CCCCC1C (configuration not stated)	-2.116	-1.939	-23.27	0.971	15.29
Cc1cccc(CN2C[C@@H](C)[C@@]3(CCN(CC(=O)N(C)C)C3=O)C2)c1.O=C(O)C(F)(F)F	-	-	-	-	-10.76
Fc1cccc(Cl)c1CN1CCC(c2n[nH]c3ncccc23)CC1	8.511	-	-0.9722	-1.21	14.96
Cc1cc(NC(C)Cc2cccnc2)n2nccc2n1 (configuration not stated)	5.128	4.608	-10.63	4.419	16.49
CN(C)S(=O)(=O)N1CC[C@]2(C[C@@H](OCC3CC3)CO2)C1	1.149	-2.525	10.82	-6.457	-2.38
CCC(C)(NCC(=O)NC(=O)NC)c1nccs1 (configuration not stated)	4.255	-2.249	-14.55	4.013	12.99
CC(=O)N1CCC(C(=O)NCCN2CCCCC2)CC1	0.813	-0.000009	-10.24	7.235	-2.617
CC(C)c1sc(Br)nc1C(=O)NCc1ccco1	3.125	20.16	17.75	-3.813	3.441
O=C(NCc1nc(NC2CCCC2)c2cc(Cl)ccc2n1)c1cncs1	2.618	0.9054	-39.95	-0.179	-5.821
COc1cccc(OC)c1C(C(=O)O)N(C)Cc1c(C)n[nH]c1C (configuration not stated)	6.897	0.6387	-6.751	1.764	-
CNC(=O)[C@@H]1C[C@H](N)CN1S(=O)(=O)c1cc(Cl)cc(Cl)c1O	7.853	-4.326	-11	5.682	0.05764
CN(CCC(F)(F)F)C(=O)C1CCCN1C(=O)OC(C)(C)C (configuration not stated)	-1.653	4.775	7.226	0.08114	-4.269
CCn1cnnc1CNC(=O)NC(c1cccs1)C1CCCC1 (configuration not stated)	1.153	55.94	-10.58	-1.322	5.327
C1CN(c2nc(C3CC3)ns2)CCS1	5.155	3.211	-11.89	3.983	-3.341
CCn1nc(C)cc1C(=O)N1C[C@@H]2C[C@@H](C)O[C@@H]2C1	-2.793	-	6.656	3.431	-
Cc1cc(C(=O)O)cc(S(=O)(=O)Nc2ccc3c(c2)OCCO3)c1C	5.572	-1.604	-19.2	4.451	-2.504
Cc1ccc(CN2Cc3c(C(=O)N4CCOCC4)nn(C)c3C2)s1	-3.509	2.703	-3.485	2.444	-

The last 5 entries again:

SMILES,A,B,C,D,E
CCn1cnnc1CNC(=O)NC(c1cccs1)C1CCCC1 (configuration not stated),1.153,55.94,-10.58,-1.322,5.327
C1CN(c2nc(C3CC3)ns2)CCS1,5.155,3.211,-11.89,3.983,-3.341
CCn1nc(C)cc1C(=O)N1C[C@@H]2C[C@@H](C)O[C@@H]2C1,-2.793,-,6.656,3.431,-
Cc1cc(C(=O)O)cc(S(=O)(=O)Nc2ccc3c(c2)OCCO3)c1C,5.572,-1.604,-19.2,4.451,-2.504
Cc1ccc(CN2Cc3c(C(=O)N4CCOCC4)nn(C)c3C2)s1,-3.509,2.703,-3.485,2.444,-

Source: ChEMBL document CHEMBL3988442, “University of Dundee, Small-Polar-MMV Screening Library” (2021).